Experimental data published in PubChem BioAssay AID901 (National Center for Advancing Translational Sciences (NCATS), 2007).
This is one part of the list. Further columns of the screen follow, without active or inactive calls. Compounds called inactive in the main read-out are mostly missing here. Words in brackets tell the shape of the fitted curve; partial curves, single points and poor fits give uncertain potencies.

Test: qHTS Assay for Identifying the Cell-Membrane Permeable IMPase Inhibitors
Details: CHO-M1 cells, IP1 accumulation, HTRF TR-FRET ratio; measured here: donor channel 620 nm AC50

SMILES | AC50
COc1ccc(C(=O)CSc2nnc(COc3ccc(C#N)cc3)n2-c2ccccc2)cc1 | 1580 nM [rising, partial curve, poor fit]
COc1ccc(Nc2nc(-c3ccccc3)c3cc(Br)ccc3n2)cc1 | 178 nM [falling, full curve, poor fit]
CCOC(=O)CSc1nc(N)c(C#N)c(-c2ccc(OC)cc2)c1C#N | 31600 nM [rising, single point]
CCCC(=O)Nc1cc(C)c(NC(=O)Cc2ccccc2)cn1 | 15800 nM [rising, single point]
O=C(CCCOc1ccccc1)Nc1nccs1 | 100 nM [falling, full curve, poor fit]
COc1ccc(-n2c(Cc3cccn3C)nnc2SCC(=O)Nc2cccc(C)c2C)cc1 | 35500 nM [falling, partial curve, poor fit]
O=C1C=CC2=C3c4cc(O)c(O)cc4CC3(O)COC2=C1O (configuration not stated) | 12600 nM [falling, partial curve]
CC(C)c1c(O)nc(SCc2ccccc2)[nH]c1=O | 501 nM [falling, single point]
CCCCOC(=O)C1CN(c2ccccc2)N=C1C(=O)OCC (configuration not stated) | 2240 nM [rising, partial curve]
CCCN(CCC)C(=O)Cn1c2ccccc2c2nc(=O)cc(C)n21 | 31600 nM [rising, single point]
O=S(=O)(c1ccc(C2CCCCC2)cc1)N1CCCC1 | 794 nM [falling, full curve]
Cc1ccc(NC(=O)COC(=O)c2sccc2C)cc1S(=O)(=O)N1CCOCC1 | 22.4 nM [falling, full curve, poor fit]
C#CCSc1nc(-c2ccccc2)cc(C(F)(F)F)c1C#N | 12600 nM [rising, partial curve]
COc1cc(/C=N/NC(N)=S)ccc1OC(=O)c1ccc(C)cc1 | 25100 nM [falling, single point]
C=CCn1cc(C(=O)NCCCOCC)c(=O)c2cc(S(=O)(=O)N(CC)CC)ccc21 | 794 nM [rising, single point]
Cc1ccc(CCNC(=O)C2CCN(S(=O)(=O)c3c(C)nn(C)c3C)CC2)cc1 | 1000 nM [falling, full curve, poor fit]
COC(=O)c1ccc2c(=O)sc(N3CCC(C(N)=O)CC3)nc2c1 | 25100 nM [rising, single point]
COc1ccccc1N1CCN(C(c2ccccn2)c2nnnn2C2CCCCC2)CC1 (configuration not stated) | 15800 nM [falling, partial curve]
CC1=C(C(=O)OC2CCCCCC2)C(c2ccccc2Cl)CC(=O)N1 (configuration not stated) | 2240 nM [falling, partial curve]
CC(C)OC(=O)c1c2nc3ccccc3nc2n2c1[nH]c(=O)c1ccccc12 | 25100 nM [rising, single point]
O=C(Nc1ccccc1C(F)(F)F)c1cc(S(=O)(=O)N2CCOCC2)ccc1F | 200 nM [falling, full curve]
Fc1cccc(Cl)c1Cc1noc(/C=C/c2ccccc2)n1 | 5010 nM [rising, partial curve, poor fit]
NCCCS(=O)(=O)O | 31.6 nM [falling, full curve, poor fit]

Given tab-delimited: 3 of the compounds above.
SMILES	AC50
C#CCSc1nc(-c2ccccc2)cc(C(F)(F)F)c1C#N	12600 nM [rising, partial curve]
COc1cc(/C=N/NC(N)=S)ccc1OC(=O)c1ccc(C)cc1	25100 nM [falling, single point]
C=CCn1cc(C(=O)NCCCOCC)c(=O)c2cc(S(=O)(=O)N(CC)CC)ccc21	794 nM [rising, single point]

Continued:

SMILES | AC50
Cc1ccn2c(Nc3ccc4c(c3)OCO4)c(-c3ccccn3)nc2c1 | 35500 nM [falling, partial curve]
CCOc1ccc(-c2cc3nc(C4CCN(C(=O)OC(C)(C)C)CC4)c(C(=O)O)cn3n2)cc1 | 1000 nM [falling, partial curve]
CC1CCCCN1C(=O)CSc1nc(-c2ccccc2)cc(=O)[nH]1 (configuration not stated) | 5.01 nM [falling, full curve]
N#CC1=C2SCC(O)(c3ccccc3)N2C(=O)CC1c1cccs1 (configuration not stated) | 10000 nM [falling, partial curve, poor fit]
COC(=O)c1ccc(-c2nc3ccc(C)cc3o2)cc1 | 31600 nM [rising, single point]
CCCCN1CCCC[C@H]1C(=O)Nc1c(C)cccc1C | 10 nM [falling, full curve, poor fit]
N#Cc1ccc(NC(=O)C2CC(c3ccc(F)cc3)=NO2)cc1 (configuration not stated) | 25.1 nM [rising, full curve, poor fit]
Cc1ccc(C2CC(c3ccccc3)=NN2C(=O)CSc2nnc(-c3ccc(Cl)cc3)o2)o1 (configuration not stated) | 794 nM [falling, single point]
COc1ccccc1N1CCN(C(=O)c2ccc(N3CCCC3=O)cc2)CC1 | 3160 nM [falling, full curve, poor fit]
CCCc1cc(=O)oc2c(CN3CCCC3)c(O)ccc12 | 15800 nM [rising, single point]
O=C1C2C(C(=O)N1CC1CCCO1)C1C=CC2C12CC2 (configuration not stated) | 31.6 nM [falling, full curve, poor fit]
COc1ccc(Nc2nc(N)nc(CSc3nc4cc(OC)ccc4s3)n2)cc1 | 35500 nM [falling, single point]
O=C(CSc1nc2ccccc2c(=O)[nH]1)c1ccccc1 | 4470 nM [falling, partial curve]
Cc1onc(-c2ccccc2)c1C(=O)Nc1ccc(S(=O)(=O)NC2=NCCCCC2)cc1 | 100 nM [falling, full curve, poor fit]
Cn1c(=O)c(=O)n(C)c2cc(NC(=O)c3ccccc3Br)ccc21 | 3980 nM [falling, partial curve]
COc1ccc(-c2cn3c(C)c(C(=O)Nc4ccncc4)sc3n2)cc1 | 31600 nM [rising, single point]
CC(C)(CN1CCCCC1)NS(=O)(=O)c1ccc(Cl)cc1 | 398 nM [falling, full curve, poor fit]
COc1ccc(CNc2nc(NCc3ccc(OC)c(OC)c3)n(C(=O)c3cccs3)n2)cc1OC | 631 nM [rising, full curve]
CCCCOC(=O)CSc1ncnc2sc3c(c12)CCC(C)C3 (configuration not stated) | 35500 nM [rising, single point]
CCOc1cc(S(=O)(=O)N2CCC(Cc3ccccc3)CC2)c(OCC)cc1-n1cnnn1 | 6310 nM [falling, single point]
CCC(C)(C)n1nnnc1CN1CCN(C(c2ccccc2)c2ccccc2)CC1 | 14100 nM [rising, single point]
COc1ccc(C2N(c3cc(C)on3)C(=O)C3CCCN32)cc1OC (configuration not stated) | 1000 nM [rising, partial curve, poor fit]
CC(=O)c1ccc(NC(=O)c2cn(-c3ccccc3)nc2-c2ccncc2)cc1 | 31600 nM [rising, single point]

SMILES | AC50
COc1ccccc1OCCSc1nc2ccccc2c(=O)[nH]1 | 2240 nM [rising, single point]
COCc1cc(=O)n2[nH]c(C)cc2n1 | 126 nM [rising, single point]
CCn1cnc2sc(C(=O)N3CCN(Cc4ccc5c(c4)OCO5)CC3)c(C)c2c1=O | 20 nM [rising, full curve, poor fit]
O=C1Nc2ccccc2N(O)N1c1cc(-c2cccc(Cl)c2)no1 | 31600 nM [falling, single point]
Cc1ccc(NCCC(=O)c2cccc([N+](=O)[O-])c2)c(C)c1 | 794 nM [falling, full curve, poor fit]
CCOc1ccccc1-c1n[nH]c(=S)o1 | 12600 nM [rising, single point]
CCCn1c(=O)c(Cc2ccccc2)c(O)c2ccccc21 | 10 nM [rising, full curve, poor fit]
CC1Cc2cc(/C(O)=C3/C(=O)C(=O)N(CCCn4ccnc4)C3c3ccco3)ccc2O1 (configuration not stated) | 794 nM [rising, partial curve, poor fit]
CCNc1nc(C)c2cc(Br)c(=O)n(CC)c2n1 | 1260 nM [rising, full curve]
Cc1ccc(NCC(=O)N/N=C/c2cc3ccccc3nc2Cl)cc1 | 126 nM [rising, full curve]
CCOC(=O)c1ccccc1NC(=O)CC1SC(=NC)N(C)C1=O (configuration not stated) | 5010 nM [falling, single point]
CCOC(=O)c1ccc(NC(=O)CSc2nc(-c3ccc(OC)cc3)cc(C(F)(F)F)c2C#N)cc1 | 35.5 nM [falling, full curve]
Cc1ccc(NC(=O)Nc2cccc(C)n2)cc1 | 708 nM [falling, single point]
CC(C)NC(=O)c1sc2nc3c(c(-c4cccs4)c2c1N)CN(C)CC3 | 12600 nM [falling, partial curve]
O=C(CCS(=O)(=O)c1cccc2nonc12)N1CC(=O)N(CCc2ccccc2)C(=O)C1 | 5010 nM [falling, partial curve, poor fit]
CCCC(=O)Nc1ccc(Cl)c(NC(=O)c2ccco2)c1 | 200 nM [falling, full curve]
Cc1ccc(Cn2c(C)cc3c(c2=O)C(c2cccs2)C(C#N)=C(N)O3)cc1 (configuration not stated) | 31600 nM [falling, single point]
Cc1c(Cl)cccc1-n1ccnc1SCC(=O)O | 3.98 nM [rising, full curve, poor fit]
CC(=O)Nc1nc(C)c(-c2csc(Nc3ccc(O)cc3)n2)s1 | 35500 nM [falling, single point]
CC(C)Sc1n[nH]c2nc3c(c(=O)n12)C1(CCCC1)Cc1ccccc1-3 | 15800 nM [falling, single point]
Cc1cccc(-n2ncc3c(N4CCCC4)ncnc32)c1 | 31.6 nM [falling, full curve]

Retrieved one by one from the list above (3):
SMILES | AC50
COCc1cc(=O)n2[nH]c(C)cc2n1 | 126 nM [rising, single point]
COC(=O)c1ccc2c(=O)sc(N3CCC(C(N)=O)CC3)nc2c1 | 25100 nM [rising, single point]
C=CCn1cc(C(=O)NCCCOCC)c(=O)c2cc(S(=O)(=O)N(CC)CC)ccc21 | 794 nM [rising, single point]
